The experiment has as its target phosphorylated Protein kinase Cα (human (endogenous in platelets)) (UniProt P17252). Nature of the experiment: affinity purification with mass spectrometry; immunoprecipitation with an anti-p-PKCα antibody from platelet membrane proteins of breast cancer and benign patients, isotypic IgG as negative control; SDS-PAGE, silver staining, differential bands excised and analysed by mass spectrometry; the named hits are among the proteins detected only in breast cancer platelets.

No constants are given. Whether binding was seen depends on the method and setting. Binding seen in cells or lysates may run through a third protein. These calls come from enrichment with a bait or labelling near it, and not all partners need be listed.

B1: EXOC3L4 (protein, UniProt Q17RC7 1-722)
chain: MPSPQTDTPGPELQSPKEAEEPQTPAQGSRRTSSRKEPNAHRKDGTRLGLGSLRQAFSRASQRALTQVSKEDTGLFRRSSCSLFRSFRQALNDGPATGHSQATPEVPSGVMNGVSQQASTGAASEELKPEAEGKSVADLITERQLLAAFEQLLRLETLLVAEKASRTFEQDPTAFARRAMDVCLLYDGLAAEIGAIVRETLDSDGVDAAALAELARVVSAEEEAHPSPPDDGDFLRTPRRWRQHWEEAVRRSAQERVRRPGAGWAFGEAEGASGLAQLLAELGGLVRRDLQKVRQEVQPAYAAAGFPAWEVYLRAFHSAVAQRLQELARDARGCEQLYILLDWAANVYGSPDFLGAPGLALPAEPLPPLLAPDVWARLESDYTSFLEAKIASCFDSILQLEQSHWAAAEVPEVLQGLYQAPLSMDVHMLVAEHVKAAGAISAELEATTLRICTRALGLFVPRFEKAFLASEAVSEPHLGAYINACEELRTSLLSRFPGTQEELEKPLVTATCSFQKHLLQGLQRELQPLFRVVCTRDWLTQDWLHPLMDKVVTFAGHLQRVARPRAQETLQEVHRFVVREYLARALRPRERFRGMERMHGSQKMSLDAQAISDTFQGLGSEATWLDQAIQCVAEILGETYKDDIQRHLETLIRSYPDIRRDHILAILALRRLGRQRNQHLLQHTQDLLRAAAGAAGAEAPRGRVLFEEIKVPSAMAVLITCV
In the case of B1, the binding result was “binds”.

B2: Sec31A (protein, UniProt O94979 1-1220)
chain: MKLKEVDRTAMQAWSPAQNHPIYLATGTSAQQLDATFSTNASLEIFELDLSDPSLDMKSCATFSSSHRYHKLIWGPYKMDSKGDVSGVLIAGGENGNIILYDPSKIIAGDKEVVIAQNDKHTGPVRALDVNIFQTNLVASGANESEIYIWDLNNFATPMTPGAKTQPPEDISCIAWNRQVQHILASASPSGRATVWDLRKNEPIIKVSDHSNRMHCSGLAWHPDVATQMVLASEDDRLPVIQMWDLRFASSPLRVLENHARGILAIAWSMADPELLLSCGKDAKILCSNPNTGEVLYELPTNTQWCFDIQWCPRNPAVLSAASFDGRISVYSIMGGSTDGLRQKQVDKLSSSFGNLDPFGTGQPLPPLQIPQQTAQHSIVLPLKKPPKWIRRPVGASFSFGGKLVTFENVRMPSHQGAEQQQQQHHVFISQVVTEKEFLSRSDQLQQAVQSQGFINYCQKKIDASQTEFEKNVWSFLKVNFEDDSRGKYLELLGYRKEDLGKKIALALNKVDGANVALKDSDQVAQSDGEESPAAEEQLLGEHIKEEKEESEFLPSSGGTFNISVSGDIDGLITQALLTGNFESAVDLCLHDNRMADAIILAIAGGQELLARTQKKYFAKSQSKITRLITAVVMKNWKEIVESCDLKNWREALAAVLTYAKPDEFSALCDLLGTRLENEGDSLLQTQACLCYICAGNVEKLVACWTKAQDGSHPLSLQDLIEKVVILRKAVQLTQAMDTSTVGVLLAAKMSQYANLLAAQGSIAAALAFLPDNTNQPNIMQLRDRLCRAQGEPVAGHESPKIPYEKQQLPKGRPGPVAGHHQMPRVQTQQYYPHGENPPPPGFIMHGNVNPNAAGQLPTSPGHMHTQVPPYPQPQPYQPAQPYPFGTGGSAMYRPQQPVAPPTSNAYPNTPYISSASSYTGQSQLYAAQHQASSPTSSPATSFPPPPSSGASFQHGGPGAPPSSSAYALPPGTTGTLPAASELPASQRTGPQNGWNDPPALNRVPKKKKMPENFMPPVPITSPIMNPLGDPQSQMLQQQPSAPVPLSSQSSFPQPHLPGGQPFHGVQQPLGQTGMPPSFSKPNIEGAPGAPIGNTFQHVQSLPTKKITKKPIPDEHLILKTTFEDLIQRCLSSATDPQTKRKLDDASKRLEFLYDKLREQTLSPTITSGLHNIARSIETRNYSEGLTMHTHIVSTSNFSETSAFMPVLKVVLTQANKLGV
As to B2, the binding result is reported as “binds”.

The values above are taken from publication PMC11302887.
